This note sets out measurements from PubChem BioAssay AID901 (National Center for Advancing Translational Sciences (NCATS), 2007).

The structures appear in SMILES notation. The list shows a part of the results. Shown are side measurements of this screen, not its main read-out; they come without a call. Most of these compounds were active or inconclusive in the main read-out, so they are no random draw. Potencies come from curve fits of mixed quality, noted in brackets.

The test in a line: qHTS Assay for Identifying the Cell-Membrane Permeable IMPase Inhibitors. As to conditions: CHO-M1 cells, IP1 accumulation, HTRF TR-FRET ratio; measured here: donor channel 620 nm AC50. A general note: qHTS replaces the single test concentration by a dilution series.
For orientation: AC50 means the midpoint of the concentration-response curve, whichever way the signal moves. Turning to `CCc1ccc2oc(=O)cc(CN3CCN(c4ccc(F)cc4)CC3)c2c1`, the AC50 was 20 nM [falling, full curve]. For `CS(=O)(=O)N1CCN(C(=O)c2cc3ccccc3oc2=O)CC1` the value was 35500 nM [falling, single point].

Take `CC1(C)CC(=O)C(N=Nc2ccc3ncsc3c2)=C(O)C1`: the concentration at half-maximal activity (AC50) is 20000 nM [rising, single point].

For the molecule `O=c1c2cc(-c3ccccc3)sc2ncn1-n1cccc1`, the concentration at half-maximal activity (AC50) was 6310 nM [falling, single point]. To `O=C(Nc1ccc(Cl)cc1)NC1CCCc2ccccc21` (configuration not stated) belongs 631 nM [falling, full curve, poor fit]. To `CC(=O)N(c1ccccc1)c1nc(C)cc(C)c1C#N` belongs 794 nM [rising, full curve, poor fit]. Regarding `Cc1ccc(CSc2ncnc3c2cnn3-c2ccc(C)cc2)cc1`, the concentration at half-maximal activity (AC50) was 3160 nM [rising, partial curve, poor fit]. For `COc1ccc(N2CCN(C(=O)CCN3C(=O)c4ccccc4S3(=O)=O)CC2)cc1` the value was 158 nM [falling, full curve, poor fit]. For `CCOC(=O)c1ccc(NC(=O)CSc2nc3cc4ccccc4cc3[nH]2)cc1` the value was 5620 nM [rising, single point]; for `Cn1c(CNC(=O)Nc2cccc(Cl)c2)nnc1SCc1ccccc1`, 5010 nM [rising, partial curve, poor fit]. To `CCc1sc(C(=O)Nc2ccsc2C(=O)OC)cc1Br` belongs 31600 nM [rising, single point].

On to `O=C(NCc1ccc2c(c1)OCO2)C1CC(=O)N(c2ccc(F)cc2)C1` (configuration not stated), for which the AC50 was 200 nM [falling, full curve]. For `Cn1c(-c2ccccc2)cnc1SCC(=O)NCc1ccco1` the value was 178 nM [falling, full curve, poor fit]; for `Brc1ccc(-c2csc(-c3c[nH]c4ccccc34)n2)cc1`, 20000 nM [rising, single point]; for `COCCn1c(Sc2nc(C)cs2)nc2c1c(=O)[nH]c(=O)n2C`, 14100 nM [falling, single point]. For `O=C(c1ccco1)N1CCN(C(=O)C2CCN(S(=O)(=O)c3cnc[nH]3)CC2)CC1` the value was 11200 nM [rising, single point]. For the molecule `COCC(=O)n1nc(-c2ccccc2)nc1NCc1ccc(F)cc1`, the AC50 was 12.6 nM [rising, full curve, poor fit]. To `C=CCn1c(Sc2ccccc2)nc2c1c(=O)[nH]c(=O)n2C` belongs 7940 nM [falling, single point]; to `CCOC(=O)Cc1nnc(NC(=O)c2ccccc2OC)s1`, 10 nM [falling, full curve, poor fit]. For `Cn1nnnc1SCC(=O)NCC(=O)c1ccccc1` the value was 631 nM [falling, partial curve]. For `CCCn1nc2ccccc2c1P(=N)(N1CCOCC1)N1CCOCC1` the value was 794 nM [rising, full curve, poor fit]. As for `Cc1sc2ncnc(SCC(=O)NNC(=O)COc3cccc4ccccc34)c2c1C`, the AC50 is 6310 nM [rising, single point].

In the case of `CCOc1ccccc1C(=O)OCC(=O)Nc1ccc(OC(F)F)cc1`, the half-maximal activity concentration (AC50) was 31600 nM [falling, single point]. With `CCOC(=O)CSC1=C(C#N)C(c2ccc(Cl)cc2)C(C(=O)OC)C(=O)N1` (configuration not stated), the AC50 was 31.6 nM [falling, full curve, poor fit]. For `CCOC(=O)C1CCCN(Cc2ccc3c(c2)OCO3)C1` (configuration not stated) the value was 251 nM [falling, full curve]; for `O=C(Nc1ccc(Br)cc1)C1CCC(=O)N1Cc1ccccc1Cl` (configuration not stated), 3980 nM [rising, single point]; for `COc1ccc(Nc2ncnc3sc(-c4ccccc4)cc23)cc1`, 3.98 nM [rising, full curve, poor fit]. For the molecule `CC(=O)Nc1ccc(S(=O)(=O)N2CCN(C(=O)CCC3CCCC3)CC2)cc1`, the AC50 was 31600 nM [falling, single point]. To `CCc1ccc(S(=O)(=O)Nc2cc3c(C(=O)OCc4ccccc4)c(C)oc3c3ccccc23)cc1` belongs 224 nM [falling, full curve, poor fit]; to `CC(=O)c1ccc(N2CCN(C(=O)C3CCCN(S(=O)(=O)c4ccc(Br)s4)C3)CC2)cc1` (configuration not stated), 17800 nM [rising, single point]; to `Cn1c(=O)c2c(SCc3ccccc3)nc(-c3ccco3)nc2n(C)c1=O`, 31600 nM [rising, single point]. To `COc1ccc(-c2ccc3c(N)c(C(=O)Nc4ccc(C(F)(F)F)cc4)sc3n2)cc1OC` belongs 35500 nM [rising, single point]. For the molecule `Cc1ccc(NC(=S)NNC(=O)Cn2nc([N+](=O)[O-])cc2C)cc1`, the AC50 was 1580 nM [falling, full curve, poor fit]. To `Cc1ccc(NC(=O)N2Cc3ccccc3CC2C(=O)NC(C)(C)C)cc1` (configuration not stated) belongs 3.98 nM [rising, full curve, poor fit]; to `CN(C)S(=O)(=O)N1CCc2ccccc21`, 631 nM [falling, full curve, poor fit]; to `COc1cc(Cl)c(C)cc1NC(=O)c1cn(C2CCCC2)c(=O)c2c1c1ccccc1n2C`, 5620 nM [rising, single point]. For `O=C(CSc1nc2nc(-c3cccs3)cc(C(F)(F)F)c2c(=O)[nH]1)NCc1ccco1` the value was 12600 nM [rising, partial curve, poor fit]; for `N#C/C(C(N)=O)=c1/ccc2c(c1)N1C3=C(CCCC3)CC3CCCCC31N=2` (configuration not stated), 12600 nM [falling, partial curve]; for `Cc1occc1-c1nnc(SCC(=O)N2CCCc3ccccc32)n1Cc1ccco1`, 2000 nM [falling, partial curve].

Take `CC(C)CC(NC(=O)C(CC(C)C)NC(=O)OC(C)(C)C)C(N)=O` (configuration not stated): the AC50 is 7.94 nM [falling, full curve, poor fit]. Consider `O=C1N(Cc2ccccc2)CCCC12CCCN(Cc1ccccc1)C2=O`, for which the half-maximal activity concentration (AC50) is 25.1 nM [falling, full curve, poor fit]. Consider `OCCN(Cc1ccccc1)Cc1cccc(C(F)(F)F)c1`, for which the AC50 was 891 nM [falling, partial curve, poor fit].
